# Reference: the supplement of paper PMC4604168 (melanoma cell lines)
# This is one part of the list. Repeats are few or missing, and single values can be far off.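 Cells were imaged in 1,536-well plates, and nuclei stained with an antibody against cleaved PARP were counted against all DNA-stained nuclei to give the apoptosis fraction. Screening doses were chosen to leave most cells alive, and resting and induced cleaved-PARP levels differ strongly between cell lines.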
# Test system: CBRC016 (line from a melanoma biopsy)
# Assay: cleaved PARP positive nuclei fraction relative to DMSO control; melanoma cells; higher = more apoptosis
# Settings: library dose: low library concentration; 72 h
row,Compound,cleaved PARP positive nuclei fraction
1,"CCCCCCCCc1ccc(CCC(N)(CO)CO)cc1 [fingolimod] + Cc1ccc(NC(=O)c2cccc(N(C)C)c2)cc1NC(=O)c1ccc(O)cc1 [ZM336372] (first compound 2 µM, partner dose 2 µM)",156%
2,"Cn1sc(=O)n(Cc2ccccc2)c1=O + Cn1cc(/C=C2\C(=O)Nc3cccnc32)c2ccccc21 [GW441756] (first compound 0.4 µM, partner dose 0.4 µM)",198%
3,"CCN(CC)CCNC(=O)c1c(C)[nH]c(/C=C2\C(=O)Nc3ccc(F)cc32)c1C [sunitinib] + CC1(C)NC(=O)N(c2ccc([N+](=O)[O-])c(C(F)(F)F)c2)C1=O [nilutamide] (first compound 0.4 µM, partner dose 1 µM)",144%
4,"CN(c1ncccc1CNc1nc(Nc2ccc3c(c2)CC(=O)N3)ncc1C(F)(F)F)S(C)(=O)=O + COc1cc2c(Oc3ccc4[nH]c(C)cc4c3F)ncnc2cc1OCCCN1CCCC1 [cediranib] (first compound 0.08 µM, partner dose 0.4 µM)",117%
5,"C[C@@H](N)c1ccc(C(=O)Nc2ccnc3[nH]ccc23)cc1 + COc1cc2ncnc(Nc3ccc(Oc4ccccc4)cc3)c2cc1OC [SrcI1] (first compound 0.4 µM, partner dose 2 µM)",155%
6,"CCCCCCCCc1ccc(CCC(N)(CO)CO)cc1 [fingolimod] + Oc1cc(-c2nc(-c3ccccc3)[nH]c2-c2ccncc2)ccc1Cl [L779450] (first compound 2 µM, partner dose 0.2 µM)",738%
7,"C[C@@H](N)c1ccc(C(=O)Nc2ccnc3[nH]ccc23)cc1 + O=S(=O)(c1ccccc1)N(CC(F)(F)F)c1ccc(C(O)(C(F)(F)F)C(F)(F)F)cc1 [T0901317] (first compound 0.4 µM, partner dose 1.4 µM)",65.9%
8,"CN(c1ncccc1CNc1nc(Nc2ccc3c(c2)CC(=O)N3)ncc1C(F)(F)F)S(C)(=O)=O + O=c1cc(-c2cccc3c2Sc2ccccc2S3)oc(N2CCOCC2)c1 [KU55933] (first compound 0.08 µM, partner dose 1 µM)",81.7%
9,"C[C@]1(O)C[C@@H](c2nc(-c3ccc4ccc(-c5ccccc5)nc4c3)c3c(N)nccn32)C1 + CCc1ccc(CCOc2ccc(CC3SC(=O)NC3=O)cc2)nc1 [pioglitazone] (first compound 0.4 µM, partner dose 2 µM)",36.4%
10,"C[C@]1(O)C[C@@H](c2nc(-c3ccc4ccc(-c5ccccc5)nc4c3)c3c(N)nccn32)C1 + COc1ccc2c(c1)CCC1C2CCC2(C)C(NCCCCCCN3C(=O)C=CC3=O)CCC12 [U73122] (first compound 0.4 µM, partner dose 0.4 µM)",88.2%
11,"C[C@]1(O)C[C@@H](c2nc(-c3ccc4ccc(-c5ccccc5)nc4c3)c3c(N)nccn32)C1 + O=C1NC(=O)/C(=C/c2ccc(-c3ccc(F)cc3O)o2)S1 [AS252424] (first compound 0.4 µM, partner dose 1 µM)",84.2%
12,"CC1(C)CCC(c2ccc(Cl)cc2)=C(CN2CCN(c3ccc(C(=O)NS(=O)(=O)c4ccc(N[C@H](CCN5CCOCC5)CSc5ccccc5)c(S(=O)(=O)C(F)(F)F)c4)cc3)CC2)C1 + O=C(Nc1cccc(Cl)c1)Nc1ncc(CCNc2ncnc3ccsc23)s1 [SNS314] (first compound 0.4 µM, partner dose 0.0008 µM)",472%
13,"C[C@]1(O)C[C@@H](c2nc(-c3ccc4ccc(-c5ccccc5)nc4c3)c3c(N)nccn32)C1 + O=C(Nc1ccccc1)c1cc([N+](=O)[O-])ccc1Cl [GW9662] (first compound 0.4 µM, partner dose 2 µM)",19.7%
14,"NC1(c2ccc(-c3nc4ccn5c(=O)[nH]nc5c4cc3-c3ccccc3)cc2)CCC1 + Cc1cc(N2CCOCC2)cc2[nH]c(-c3c(NC[C@@H](O)c4cccc(Cl)c4)cc[nH]c3=O)nc12 [BMS536924] (first compound 0.4 µM, partner dose 0.2 µM)",72.4%
15,"CCN(CC)CCNC(=O)c1c(C)[nH]c(/C=C2\C(=O)Nc3ccc(F)cc32)c1C [sunitinib] + O=c1cc(-c2cccc3c2Sc2ccccc2S3)oc(N2CCOCC2)c1 [KU55933] (first compound 0.4 µM, partner dose 1 µM)",18.5%
16,"CS(=O)(=O)c1ccc(C(=O)Nc2ccc(Cl)c(-c3ccccn3)c2)c(Cl)c1 [vismodegib] + CN(NC(=O)CC(=O)NN(C)C(=S)c1ccccc1)C(=S)c1ccccc1 [STA4783] (first compound 1 µM, partner dose 0.006 µM)",180%
17,"Cn1cnc2c(F)c(Nc3ccc(Br)cc3Cl)c(C(=O)NOCCO)cc21 [selumetinib] + C=CCNC1=C2C[C@@H](C)C[C@H](OC)[C@H](O)[C@@H](C)/C=C(\C)[C@H](OC(N)=O)[C@@H](OC)/C=C\C=C(/C)C(=O)NC(=CC1=O)C2=O [Tanespimycin] (first compound 0.015 µM, partner dose 0.002 µM)",243%
18,"Cn1cnc2c(F)c(Nc3ccc(Br)cc3Cl)c(C(=O)NOCCO)cc21 [selumetinib] + O=S(=O)(c1ccccc1)N(CC(F)(F)F)c1ccc(C(O)(C(F)(F)F)C(F)(F)F)cc1 [T0901317] (first compound 0.015 µM, partner dose 1.4 µM)",29%
19,"NC1(c2ccc(-c3nc4ccn5c(=O)[nH]nc5c4cc3-c3ccccc3)cc2)CCC1 + O=C(O)C(=O)Nc1sc2c(c1C(=O)O)CCNC2 [TCS401] (first compound 0.4 µM, partner dose 1.66667 µM)",52.4%
20,"CC1(C)CCC(c2ccc(Cl)cc2)=C(CN2CCN(c3ccc(C(=O)NS(=O)(=O)c4ccc(N[C@H](CCN5CCOCC5)CSc5ccccc5)c(S(=O)(=O)C(F)(F)F)c4)cc3)CC2)C1 + Nc1nc(F)nc2c1ncn2[C@@H]1O[C@H](CO)[C@@H](O)[C@@H]1O [fludarabine] (first compound 0.4 µM, partner dose 0.2 µM)",630%
21,"Cn1sc(=O)n(Cc2ccccc2)c1=O + C=CCNC1=C2C[C@@H](C)C[C@H](OC)[C@H](O)[C@@H](C)/C=C(\C)[C@H](OC(N)=O)[C@@H](OC)/C=C\C=C(/C)C(=O)NC(=CC1=O)C2=O [Tanespimycin] (first compound 0.4 µM, partner dose 0.002 µM)",61.5%
22,"Cn1cnc2c(F)c(Nc3ccc(Br)cc3Cl)c(C(=O)NOCCO)cc21 [selumetinib] + COc1ccc2c(c1)CCC1C2CCC2(C)C(NCCCCCCN3C(=O)C=CC3=O)CCC12 [U73122] (first compound 0.015 µM, partner dose 0.4 µM)",55.6%
23,"CCCCCCCCc1ccc(CCC(N)(CO)CO)cc1 [fingolimod] + CC(C)(C)c1cnc(CSc2cnc(NC(=O)C3CCNCC3)s2)o1 [SNS-032] (first compound 2 µM, partner dose 0.01 µM)",47.3%
24,"NC(=O)c1ccc(N(C(N)=O)c2c(F)cccc2F)nc1-c1ccc(F)cc1F + COCC[n+]1c2c(n(Cc3cnccn3)c1C)C(=O)c1ccccc1C2=O [YM155] (first compound 0.4 µM, partner dose 0.0004 µM)",96.8%
25,"NC1(c2ccc(-c3nc4ccn5c(=O)[nH]nc5c4cc3-c3ccccc3)cc2)CCC1 + CO[C@@H]1[C@H](N(C)C(=O)c2ccccc2)C[C@H]2O[C@]1(C)n1c3ccccc3c3c4c(c5c6ccccc6n2c5c31)C(=O)NC4 [Midostaurin] (first compound 0.4 µM, partner dose 0.08 µM)",130%
26,"CC1(C)CCC(c2ccc(Cl)cc2)=C(CN2CCN(c3ccc(C(=O)NS(=O)(=O)c4ccc(N[C@H](CCN5CCOCC5)CSc5ccccc5)c(S(=O)(=O)C(F)(F)F)c4)cc3)CC2)C1 + Cn1nnc2c(C(N)=O)ncn2c1=O [temozolomide] (first compound 0.4 µM, partner dose 2 µM)",766%
27,"CN(c1ncccc1CNc1nc(Nc2ccc3c(c2)CC(=O)N3)ncc1C(F)(F)F)S(C)(=O)=O + CO[C@@H]1[C@H](N(C)C(=O)c2ccccc2)C[C@H]2O[C@]1(C)n1c3ccccc3c3c4c(c5c6ccccc6n2c5c31)C(=O)NC4 [Midostaurin] (first compound 0.08 µM, partner dose 0.08 µM)",77.7%
28,"Cn1sc(=O)n(Cc2ccccc2)c1=O + c1cc(-c2cnn3cc(-c4ccc(OCCN5CCCCC5)cc4)cnc23)ccn1 [Dorsomorphin] (first compound 0.4 µM, partner dose 0.4 µM)",41.7%
29,"CC(=O)O[C@@]12CO[C@@H]1C[C@H](O)[C@@]1(C)C(=O)[C@H](O)C3=C(C)[C@@H](OC(=O)[C@H](O)[C@@H](NC(=O)OC(C)(C)C)c4ccccc4)C[C@@](O)([C@@H](OC(=O)c4ccccc4)[C@H]21)C3(C)C [Docetaxel] + N#Cc1c(O)c2c(-c3ccc(-c4ccccc4O)cc3)csc2[nH]c1=O [A769662] (first compound 0.0001 µM, partner dose 2 µM)",244%
30,"Cn1cnc2c(F)c(Nc3ccc(Br)cc3Cl)c(C(=O)NOCCO)cc21 [selumetinib] + OCCn1cc(-c2cnc3nnn(Cc4ccc5ncccc5c4)c3n2)cn1 [PF04217903] (first compound 0.015 µM, partner dose 1 µM)",38.3%

# Some of the entries above in a different format:
row	Compound	cleaved PARP positive nuclei fraction
1	CCCCCCCCc1ccc(CCC(N)(CO)CO)cc1 [fingolimod] + Cc1ccc(NC(=O)c2cccc(N(C)C)c2)cc1NC(=O)c1ccc(O)cc1 [ZM336372] (first compound 2 µM, partner dose 2 µM)	156%
2	Cn1sc(=O)n(Cc2ccccc2)c1=O + Cn1cc(/C=C2\C(=O)Nc3cccnc32)c2ccccc21 [GW441756] (first compound 0.4 µM, partner dose 0.4 µM)	198%
